Where a chain is given by its changes, count along the chain named. Names and notes keep the numbering of the source.
B1: RSSR↓E: human FGE variant, Tyr70 substituted with Ser (protein)
chain: ADEFSQEAGTGAGAGSLAGSCGCGTPQRPGAHGSSAAAHRSSREANAPGPVPGERQLAHSKMVPIPAGVFTMGTDDPQIKQDGEAPARRVTIDAFYMDAYEVSNTEFEKFVNSTGYLTEAEKFGDSFVFEGMLSEQVKTNIQQAVAAAPWWLPVKGANWRHPEGPDSTILHRPDHPVLHVSWNDAVAYCTWAGKRLPTEAEWEYSCRGGLHNRLFPWGNKLQPKGQHYANIWQGEFPVTNTGEDGFQGTAPVDAFPPNGYGLYNIVGNAWEWTSDWWTVHHSVEETLNPKGPPSGKDRVKKGGSYMCHRSYCYRYRCAARSQNTPDSSASNLGFRCAADRLPTMDSGRGSHHHHHHH
modifications: FGE fl variant Y70S
notes: human FGE variant, Tyr70 substituted with Ser
B2: RARR↓E: human FGE variant with Y70A and S71R substitutions (protein)
chain: B1 chain with S41A, S42R
modifications: FGE variant Y70A / S71R
notes: human FGE variant with Y70A and S71R substitutions
B3: RYRR↓E: human FGE variant, Ser71 at position P2 mutated to arginine (protein)
chain: B1 chain with S41Y, S42R
modifications: FGE variant S71R
notes: human FGE variant, Ser71 at position P2 mutated to arginine

Test system: HT1080 Tet-On cells
Assay: Proteolytic processing of secreted FGE and cleavage motif variants in HT1080 Tet-On cells (western blot)
Assay type: cell-based, human
Conditions: transient expression, western blot

Row | Molecule | cleavage efficiency (fl-FGE/Δ72-FGE ratio in the medium) compared to FGE-wt
1 | B1 | minor effect
2 | B2 | virtually all of the secreted FGE was processed
3 | B3 | virtually all of the secreted FGE was processed

— US20150141617A1, “PRODUCTION AND PURIFICATION OF ACTIVE EUKARYOTIC FORMYLGLYCINEGENERATING ENZYME (FGE) VARIANTS” (Universität Bielefeld, priority 2013, published 2015)
